Earlier results as cited in patent publication US20070060621A1, “Methods and compositions for the administration of prodrugs of proton pump inhibitors” (priority 2004, published 2007).
Some entries share one result that the patent states for a list of compounds.

Conditions: demonstrated in other patent applications incorporated by reference; cited from earlier work

Structure (SMILES) | conversion of prodrug in vivo
COc1ccc2c(c1)nc([S+]([O-])Cc1ncc(C)c(OC)c1C)n2S(=O)(=O)c1ccc(C(=O)O)cc1OC (stereo not drawn) [Compound 25] | decompose in vivo to form proton pump inhibitors
Cc1c(OCC(F)(F)F)ccnc1C[S+]([O-])c1nc2ccccc2n1S(=O)(=O)c1ccc(OCC(C)(C)C(=O)O)cc1 (stereo not drawn) [Compound 11] | decompose in vivo to form proton pump inhibitors
Cc1cc(OCC(=O)O)cc(C)c1S(=O)(=O)n1c([S+]([O-])Cc2nccc(OCC(F)(F)F)c2C)nc2ccccc21 (stereo not drawn) [Compound 34] | decompose in vivo to form proton pump inhibitors
Cc1c(OCC(F)(F)F)ccnc1C[S+]([O-])c1nc2ccccc2n1S(=O)(=O)c1ccc(CC(=O)O)c(CC(=O)O)c1 (stereo not drawn) [Compound 12] | decompose in vivo to form proton pump inhibitors
COCCCOc1ccnc(C[S+]([O-])c2nc3ccccc3n2S(=O)(=O)c2cccc(C(=O)O)c2)c1C (stereo not drawn) [Compound 30] | decompose in vivo to form proton pump inhibitors
Cc1c(OCC(F)(F)F)ccnc1C[S+]([O-])c1nc2ccccc2n1S(=O)(=O)c1ccc(C(=O)O)c(OCC(=O)O)c1 (stereo not drawn) [Compound 16] | decompose in vivo to form proton pump inhibitors
COc1ccc2c(c1)nc([S+]([O-])Cc1ncc(C)c(OC)c1C)n2S(=O)(=O)c1ccc(OCC(=O)O)c(OCC(=O)O)c1 (stereo not drawn) [Compound 24] | decompose in vivo to form proton pump inhibitors
COc1ccc2c(c1)nc([S+]([O-])Cc1ncc(C)c(OC)c1C)n2S(=O)(=O)c1ccc(OCC(=O)O)cc1 (stereo not drawn) [Compound 1] | decompose in vivo to form proton pump inhibitors
COc1ccc2c(c1)nc([S+]([O-])Cc1ncc(C)c(OC)c1C)n2S(=O)(=O)c1ccc(C(=O)O)c(C(=O)O)c1 (stereo not drawn) [Compound 22] | decompose in vivo to form proton pump inhibitors
COc1ccc(S(=O)(=O)n2c([S+]([O-])Cc3nccc(OCC(F)(F)F)c3C)nc3ccccc32)cc1C(=O)O (stereo not drawn) [Compound 8] | decompose in vivo to form proton pump inhibitors
COc1ccc2c(c1)nc([S+]([O-])Cc1ncc(C)c(OC)c1C)n2S(=O)(=O)c1ccc(OCC(C)(C)C(=O)O)cc1 (stereo not drawn) [Compound 3] | decompose in vivo to form proton pump inhibitors
Cc1cc(OCC(=O)O)cc(C(C)C)c1S(=O)(=O)n1c([S+]([O-])Cc2nccc(OCC(F)(F)F)c2C)nc2ccccc21 (stereo not drawn) [Compound 17] | decompose in vivo to form proton pump inhibitors
COc1ccc(S(=O)(=O)n2c([S+]([O-])Cc3nccc(OCC(F)(F)F)c3C)nc3ccccc32)cc1CCC(=O)O (stereo not drawn) [Compound 38] | decompose in vivo to form proton pump inhibitors
Cc1c(OCC(F)(F)F)ccnc1C[S+]([O-])c1nc2ccccc2n1S(=O)(=O)c1cccc(C(=O)O)c1 (stereo not drawn) [Compound 7] | decompose in vivo to form proton pump inhibitors
Cc1c(OCC(F)(F)F)ccnc1C[S+]([O-])c1nc2ccccc2n1S(=O)(=O)c1ccc(OCC(=O)O)c(OCC(=O)O)c1 (stereo not drawn) [Compound 35] | decompose in vivo to form proton pump inhibitors
Cc1c(OCC(F)(F)F)ccnc1C[S+]([O-])c1nc2ccccc2n1S(=O)(=O)c1ccc(OCC(=O)O)cc1 (stereo not drawn) [Compound 10] | decompose in vivo to form proton pump inhibitors
COCCCOc1ccnc(C[S+]([O-])c2nc3ccccc3n2S(=O)(=O)c2cc(C(=O)O)ccc2C)c1C (stereo not drawn) [Compound 31] | decompose in vivo to form proton pump inhibitors
Cc1c(OCC(F)(F)F)ccnc1C[S+]([O-])c1nc2ccccc2n1S(=O)(=O)c1ccc(CC(=O)O)cc1 (stereo not drawn) [Compound 9] | decompose in vivo to form proton pump inhibitors
COc1ccc2c(c1)nc([S+]([O-])Cc1ncc(C)c(OC)c1C)n2S(=O)(=O)c1ccc(CC(=O)O)cc1 (stereo not drawn) [Compound 5] | decompose in vivo to form proton pump inhibitors
Cc1c(OCC(F)(F)F)ccnc1C[S+]([O-])c1nc2ccccc2n1S(=O)(=O)c1ccc(C(=O)O)cc1 (stereo not drawn) [Compound 18] | decompose in vivo to form proton pump inhibitors
COc1ccnc(C[S+]([O-])c2nc3cc(OC(F)F)ccc3n2S(=O)(=O)c2ccc(OCC(=O)O)cc2)c1OC (stereo not drawn) [Compound 28] | decompose in vivo to form proton pump inhibitors
COc1ccc2c(c1)nc([S+]([O-])Cc1ncc(C)c(OC)c1C)n2S(=O)(=O)c1cccc(C(=O)O)c1 (stereo not drawn) [Compound 6] | decompose in vivo to form proton pump inhibitors
Cc1c(OCC(F)(F)F)ccnc1C[S+]([O-])c1nc2ccccc2n1S(=O)(=O)c1ccc(CC(=O)O)cc1C(C)C (stereo not drawn) [Compound 15] | decompose in vivo to form proton pump inhibitors
COc1ccc2c(c1)nc([S+]([O-])Cc1ncc(C)c(OC)c1C)n2S(=O)(=O)c1c(C)cc(OCC(C)(C)C(=O)O)cc1C (stereo not drawn) [Compound 4] | decompose in vivo to form proton pump inhibitors
COCCCOc1ccnc(C[S+]([O-])c2nc3ccccc3n2S(=O)(=O)c2ccc(C(=O)O)cc2)c1C (stereo not drawn) [Compound 33] | decompose in vivo to form proton pump inhibitors
COc1ccc2c(c1)nc([S+]([O-])Cc1ncc(C)c(OC)c1C)n2S(=O)(=O)c1c(C)cc(OCC(=O)O)cc1C (stereo not drawn) [Compound 2] | decompose in vivo to form proton pump inhibitors
COc1ccc2c(c1)nc([S+]([O-])Cc1ncc(C)c(OC)c1C)n2S(=O)(=O)c1ccc(OCC(=O)O)c(C(=O)O)c1 (stereo not drawn) [Compound 23] | decompose in vivo to form proton pump inhibitors
Cc1ccc(S(=O)(=O)n2c([S+]([O-])Cc3nccc(OCC(F)(F)F)c3C)nc3ccccc32)cc1CCC(=O)O (stereo not drawn) [Compound 19] | decompose in vivo to form proton pump inhibitors
COCCCOc1ccnc(C[S+]([O-])c2nc3ccccc3n2S(=O)(=O)c2c(C)cc(OCC(=O)O)cc2C)c1C (stereo not drawn) [Compound 32] | decompose in vivo to form proton pump inhibitors
Cc1cc(C(=O)O)ccc1S(=O)(=O)n1c([S+]([O-])Cc2nccc(OCC(F)(F)F)c2C)nc2ccccc21 (stereo not drawn) [Compound 37] | decompose in vivo to form proton pump inhibitors
